Measurements reported in article PMC4729902.
These are yes or no findings as the source states them, for the method shown. In cells and extracts the contact can be indirect. A yes stands for co-enrichment or nearness to the bait. Other partners may have been found.

Molecular target: T1, MEIOC (Meiosis specific with coiled-coil domain), endogenous in mouse testis (mouse (endogenous in testis)) (UniProt A2AG06)
T1 sequence: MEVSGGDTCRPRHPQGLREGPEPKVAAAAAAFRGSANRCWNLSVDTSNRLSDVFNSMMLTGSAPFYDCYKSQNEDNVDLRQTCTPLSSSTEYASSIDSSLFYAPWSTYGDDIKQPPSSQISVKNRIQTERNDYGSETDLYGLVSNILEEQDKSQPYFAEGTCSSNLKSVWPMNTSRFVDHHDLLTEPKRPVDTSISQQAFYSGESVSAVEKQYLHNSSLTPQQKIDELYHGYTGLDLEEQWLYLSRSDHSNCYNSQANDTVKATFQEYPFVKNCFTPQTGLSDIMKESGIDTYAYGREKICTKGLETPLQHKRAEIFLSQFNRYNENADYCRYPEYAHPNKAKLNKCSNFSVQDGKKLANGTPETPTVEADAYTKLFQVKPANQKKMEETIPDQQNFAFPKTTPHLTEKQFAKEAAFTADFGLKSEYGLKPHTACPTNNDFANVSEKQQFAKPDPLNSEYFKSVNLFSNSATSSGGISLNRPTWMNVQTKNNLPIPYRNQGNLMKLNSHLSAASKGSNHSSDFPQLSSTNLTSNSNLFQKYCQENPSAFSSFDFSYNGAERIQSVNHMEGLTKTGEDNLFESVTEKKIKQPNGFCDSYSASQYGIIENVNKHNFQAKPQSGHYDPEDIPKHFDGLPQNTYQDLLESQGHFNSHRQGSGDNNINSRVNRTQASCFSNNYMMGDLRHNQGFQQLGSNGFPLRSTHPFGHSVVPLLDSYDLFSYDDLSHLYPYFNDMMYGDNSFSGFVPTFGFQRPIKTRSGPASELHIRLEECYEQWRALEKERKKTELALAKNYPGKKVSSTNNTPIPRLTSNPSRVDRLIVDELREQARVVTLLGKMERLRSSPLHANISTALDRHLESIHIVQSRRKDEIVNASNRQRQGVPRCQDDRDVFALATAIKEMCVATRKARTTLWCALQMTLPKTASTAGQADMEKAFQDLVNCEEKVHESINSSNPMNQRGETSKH
Assay: affinity purification with mass spectrometry; IP of MEIOC-containing complexes with a commercial anti-MEIOC antibody from young (16 d.p.p.) Meioc+/+ testis extracts, Meioc-/- testes as control; extracts treated with 270 U/ml benzonase; nanoLC-LTQ-Orbitrap XL

binding: binds
B1: YTHDC2, endogenous in mouse testis (protein, UniProt B2RR83 1-1445)
chain: MSRPSSVSPRPPAPSGGGTGGGGGGSGGGGGGGGGGPASCGPGGGGRAKGLKDIRIDEEVKIAVNIALERFRYGDQREMEFPSSLTSTERAFIHRLSQSLGLVSKSKGKGANRYLTVKKKDGSETAHAMMTCNLTHNTKHAVRSLIQRFPVTNKERTELLPKTERGNVFAVEAENREMSKTSGRLNNGIPQVPVKRGESEFDSFRQSLPVFEKQEEIVKIIKENKVVLIVGETGSGKTTQIPQFLLDDCFKNGIPCRIFCTQPRRLAAIAVAERVAAERRERIGQTIGYQIRLESRVSPKTLLTFCTNGVLLRTLMAGDSTLSTVTHVIVDEVHERDRFSDFLLTKLRDLLQKHPTLKLILSSAALDVNLFIRYFGSCPVIYIQGRPFEVKEMFLEDILRTTGYTNKEMLKYKKEKQREEKQQTTLTEWYSAQENTFKPESQRQRAVASVSEEYDLLDDGGDAVFSQLTEKDVNCLEPWLIKEMDACLSDIWLHKDVDAFAQVFHLILTENVSVDYRHSETSATALMVAAGRGFTSQVEQLISMGANVHSKASNGWMALDWAKHFGQTEIVDLLESYSASLEFGNLDESSLVQTNGNDLSAEDRELLKAYHHSFDDEKVDLDLIMHLLYNICHSCDAGAILIFLPGYDEIVGLRDRILFDDKRFADNTHRYQVFMLHSNMQTSDQKKVLKNPPAGVRKIILSTNIAETSITVNDVVFVIDSGKVKEKSFDALNFVTMLKMVWISKASAIQRKGRAGRCRPGICFRLFSRLRFQNMLEFQTPELLRMPLQELCLHTKLLAPVNCTIADFLMKAPEPPPALIVRNAVQMLKTIDAMDAWEDLTELGYHLADLPVEPHLGKMVLCAVVLKCLDPILTIACTLAYRDPFVLPTQASQKRAAMLCRKRFTAGTFSDHMALLRAFQAWQKARSDGWERAFCEKNFLSQATMEIIIGMRTQLLGQLRASGFVRARGGGDIRDVNTNSENWAVVKAALVAGMYPNLVHVDRENVILTGPKEKKVRFHPTSVLSQPQYKKIPPANGQAAAIQALPTDWLIYDEMTRAHRIANIRCCSAVTPVTVLVFCGPARLASNALQEPSSFRADGIPNDSSDSEMEDRTTANLAALKLDEWLNFKLEPEAASLLLQLRQKWHSLFLRRMRAPSKPWSQVDEATIRAIIAVLSTEEQSAGLQQPSGIGQRPRPMSSEELPLASSWRSNNSRKSTADTEFADGSTTGERVLMKSPSPALHPPQKYKDRGILHPKRSTDDRSDQSSVKSTDSSSYPSPCASPSPPSSGKGSKSPSPRPNMPIRYFIMKSSNLRNLEISQQKGIWSTTPSNERKLNRAFWESSMVYLVFSVQGSGHFQGFSRMSSEIGREKSQDWGSAGLGGVFKVEWIRKESLPFQFAHHLLNPWNDNKKVQISRDGQELEPQVGEQLLQLWERLPLGEKTTSD
